PubChem BioAssay AID1259284 | Sanger Institute | 2017
The deposit covers 794 reagents; below is an unselected part. Over the whole deposit, 16 (2%) were called active. 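Calls concern knock-down without drug only; drug synergy was judged apart, with scores above 0.15 taken as synergy.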 Entries without a mark were called inactive. Further read-outs or replicates are left out here. The record does not give: the amount of reagent, the time to read-out.

Purpose: 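Kinase knock-downs that cut colorectal cancer cell growth alone or with targeted drugs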 (primary screen)
Cells: SW48 human colorectal cancer cells
Reagents: siRNA pool against human genes
Conditions: anchor drug BYL719 at 1 µM, cetuximab at 5 µg/ml or trametinib at 10 nM, or DMSO vehicle alone
Measured: 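Cell viability relative to non-targeting pool wells, replicate mean, with robust z-scores and drug synergy scores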
Direction: robust z-score, no drug: higher = more cells survive knock-down
Rule for the call: 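a knock-down is essential if viability without drug gives a robust z-score under -3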
Meaning of the calls: active = essential without drug; inactive = no change without drug

What is on record for RIPK2?
robust z-score, no drug: -3.01 (active)

With PRKG2, what does the deposit list?
robust z-score, no drug: 0.426

For MAPK1, how do the results read?
robust z-score, no drug: -2.87

For CPNE3, what was measured?
robust z-score, no drug: 0.426

How did the screen score SOX9?
robust z-score, no drug: 0.426

What is on record for ZAP70?
robust z-score, no drug: 0.426

With EFNA5, what was measured?
robust z-score, no drug: 0.426

Which result is listed for MOS?
robust z-score, no drug: -0.62

How did the screen score CSNK1E?
robust z-score, no drug: -1.46

For MAP3K20, what does the deposit list?
robust z-score, no drug: 0.426

What is on record for PLK1?
robust z-score, no drug: -7.86 (active)

What is on record for PIK3C2A?
robust z-score, no drug: -1.2

What did the screen give for CSNK2A1?
robust z-score, no drug: 0.426

With JAK2, what does the deposit list?
robust z-score, no drug: 0.426

For DGKG, what was measured?
robust z-score, no drug: 0.426

With PRKAA2, what does the deposit list?
robust z-score, no drug: 0.426

For PKLR, what was measured?
robust z-score, no drug: 0.426

What is on record for BUB1B?
robust z-score, no drug: -1.53

With CDK14, how do the results read?
robust z-score, no drug: 0.426
